This assay can be described thus: qHTS Assay for Lipid Storage Modulators in Drosophila S3 Cells.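 For cell number change: cells counted by Cell Tracker Red CMTPX staining in the red channel.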 Particulars: BODIPY lipid droplet fluorescence, 18-24 h; for cell number change: measured here: cell count max response, cells fed with added oleic acid. Put shortly:
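Drosophila S3 cells got compounds at several concentrations plus oleic acid (400 uM solution). Laser-scanning cytometry with 488 nm excitation read lipid droplets at 500-530 nm and cells at 575-640 nm. Percent activity was relative to 20 uM Triacsin C.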

[1] abbreviates: measured here: lipid fluorescence (Fed channel) AC50, cells fed with added oleic acid.
Setting [2] is: measured here: cell number channel AC50, cells fed with added oleic acid.

This is one part of the list. Further columns of the screen follow, without active or inactive calls. The list favours compounds with an active or inconclusive main result. Potencies come from curve fits of mixed quality, noted in brackets.

Data on 60 compounds can be found in PubChem BioAssay AID2685 (National Center for Advancing Translational Sciences (NCATS), 2010).

For `COc1ccc([C@@H]2CC=C(C(=O)O)[C@H](c3cccc(Cl)c3)N2S(=O)(=O)c2ccc(C)cc2)cc1OC`, the cell number change is -4.81%. The concentration at half-maximal activity (AC50) under setting [1] is 0.116 µM [falling, full curve, poor fit]. Consider `Cc1nn(C(=O)c2cccs2)c(C)c1CN1C(=O)c2ccccc2C1=O`, for which the cell number change turned out to be 8.05%. Further, the concentration at half-maximal activity (AC50) under setting [1] was 1.84 µM [rising, partial curve].

Regarding `COc1cccc(-c2nc(CS(=O)(=O)CC(=O)N3CCc4ccccc4C3)c(C)o2)c1`, the cell number change worked out at 17.9%. Further, under setting [2], the AC50 was 1.64 µM [rising, single point]. Further, the AC50 under setting [1] is 1.84 µM [rising, full curve]. As for `CCOC(=O)N1CCC(Nc2c(NCCN3CCN(c4cccc(Cl)c4)CC3)c(=O)c2=O)CC1`, the cell number change was 3.5%. On the same count and under the same terms, for `CC(C)c1nc(SCC(=O)NCc2ccccc2)n[nH]1` the value was 5.97%. Regarding `CCC(C(=O)NC(C)(C)C)N(Cc1ccc(F)cc1)C(=O)c1snc(C(N)=O)c1N` (stereo unspecified), the cell number change is -27.7%.

In the case of `Cc1cc(NC(=O)c2cc(-c3ccc(C)c(C)c3)nc3ccccc23)no1`, the cell number change is 32.6%. Also, the AC50 under setting [2] was 9.2 µM [rising, single point]. Besides, the AC50 under setting [1] was 16.4 µM [rising, partial curve]. As to `CCC1CCCCN1C(=O)CCCOc1ccccc1` (stereo unspecified), the cell number change was -1.43%. Also, the concentration at half-maximal activity (AC50) under setting [1] was 29.1 µM [falling, single point]. As for `COCCn1c(SCC(=O)NCc2ccc(F)cc2)nc2ccccc21`, the cell number change was 37.5%. Turning to `CC(C)Cc1nnc(NC(=O)CCN2C(=O)c3ccccc3C2=O)s1`, the cell number change is 10.9%. As for `CCn1cc2nc(SCC(=O)Nc3ccccc3F)n(Cc3ccccc3)c(=O)c2n1`, the cell number change was -23.6%. `COc1ccc(C2NC(=S)NC3=C2CCc2ccccc23)cc1OC` (stereo unspecified): the cell number change is -37.5%. Besides, the half-maximal activity concentration (AC50) under setting [2] was 0.0058 µM [falling, full curve, poor fit]. The concentration at half-maximal activity (AC50) under setting [1] was 0.13 µM [falling, full curve, poor fit]. `Cc1c(C(=O)Nc2ccc(Nc3ccccc3)cc2)cccc1[N+](=O)[O-]`: the cell number change was -56.9%. The AC50 under setting [2] was 23.1 µM [falling, single point]. In addition, under setting [1], the AC50 was 1.64 µM [falling, partial curve]. `CCN(CC)C(=O)COc1ccc(/C(C)=N/NC(=O)c2ccccc2-n2cccc2)cc1`: the cell number change was -14.9%.

As for `N#CCOC(=O)[C@H](Cc1ccccc1)N1C(=O)c2ccccc2C1=O`, the cell number change was determined as 3.55%.

Take `Cc1cc(C)cc(C(=O)NCC(=O)OCC(=O)c2c(N)n(C)c(=O)n(C)c2=O)c1`: the cell number change was -35.1%. Under setting [2], the AC50 is 29.1 µM [falling, single point]. Also, under setting [1], the half-maximal activity concentration (AC50) was 11.6 µM [falling, partial curve]. Take `COc1ccc2occ(C(=O)c3coc4ccc(O)c(CN(C)C)c34)c2c1`: the cell number change was -23.5%. In the case of `COc1ccc(N2CCN(C(C)C(=O)N3CCc4ccccc43)CC2)cc1` (stereo unspecified), the cell number change amounted to 21%. Also, the half-maximal activity concentration (AC50) under setting [2] was 3.26 µM [rising, partial curve, poor fit]. Besides, the AC50 under setting [1] was 0.206 µM [rising, single point]. On to `CC(NC(=O)COC(=O)/C=C/c1ccc(Cl)cc1)c1ccccc1` (stereo unspecified), for which the AC50 under setting [1] is 0.58 µM [falling, single point]. With `CCC(=O)c1ccc(OCc2ccc(C(=O)c3ccccc3)cc2)cc1`, the cell number change is -31.4%. Moreover, the AC50 under setting [2] is 29.1 µM [falling, single point]. In the case of `COc1cc(C(=O)Cc2nc3ccccc3n2C)cc(OC)c1OC`, the cell number change was determined as 22.6%. Also, the AC50 under setting [1] is 29.1 µM [rising, single point]. For `Cc1ccc(NC(=O)NC(=O)N(C(C)C)S(=O)(=O)c2ccc(C)cc2)cc1`, the cell number change was -15.4%. For the same compound, the AC50 under setting [1] was 0.82 µM [rising, single point]. With `COCCCNC(=O)c1ccc2c(=O)n(Cc3ccc(Cl)cc3)c(=S)[nH]c2c1`, under setting [1], the AC50 was 0.651 µM [rising, partial curve, poor fit].

Regarding `COc1ccc(C2=CC3=C(Br)C(=O)C(C)(OC(=O)C4CCCC4)C(=O)C3=CO2)cc1` (stereo unspecified), the cell number change is -28.4%. Under setting [1], the AC50 is 29.1 µM [falling, partial curve, poor fit]. As to `Cc1ccc[n+](-c2nc([O-])sc2C=O)c1`, the cell number change is -47%. On to `CCCCC(NC(C)=O)c1nc2ccccc2[nH]1` (stereo unspecified), for which the cell number change is -37.2%. In addition, the AC50 under setting [2] was 32.6 µM [falling, partial curve, poor fit]. Also, the AC50 under setting [1] is 29.1 µM [falling, partial curve]. Take `COc1ccc(NS(=O)(=O)c2c(F)cc(F)c(Cl)c2F)cc1S(=O)(=O)N1CCCCC1`: the cell number change is 123%. In the case of `c1csc(-c2csc3nc(CN4CCOCC4)nc(NCc4ccc5c(c4)OCO5)c23)c1`, the cell number change is -9.5%. Also, the AC50 under setting [2] was 0.116 µM [rising, full curve, poor fit]. The AC50 under setting [1] is 0.103 µM [rising, full curve, poor fit]. For `COc1cc(C(=O)OCc2cc(=O)c(O)co2)ccc1OC(F)F`, the cell number change was 11.7%.

Turning to `Cn1c(CNC(=O)c2ccccc2F)nnc1SCC(=O)Nc1nncs1`, the cell number change was -3.97%. `CCOC(=O)c1c(NC(=O)CSc2nnc(Cc3csc(N)n3)n2C)sc(C)c1C`: the cell number change was -4.92%. Consider `O=C(CN1CCOCC1)N/N=C/c1ccccc1`, for which the cell number change worked out at 121%. `CC(=O)N1N=C(c2ccco2)CC1c1ccc(C)cc1` (stereo unspecified): the cell number change was -12.6%. For the same compound, under setting [2], the AC50 was 0.651 µM [falling, single point]. Further, under setting [1], the concentration at half-maximal activity (AC50) is 0.366 µM [falling, partial curve, poor fit]. On to `O=C(c1ccc2c(c1)OCO2)N(Cc1ccco1)C1(C(=O)NC2CCCCC2)CCCCC1`, for which the cell number change was determined as 8.25%. Further, under setting [1], the AC50 is 0.00461 µM [rising, full curve, poor fit].

As for `Cc1c(Cl)ccc(S(=O)(=O)NCCN2CCOCC2)c1Cl`, the cell number change amounted to 4.66%. The AC50 under setting [1] was 3.26 µM [rising, partial curve]. Turning to `COc1ccccc1NC(=O)CCC(=O)N/N=C(/C)c1ccc(C)cc1`, the cell number change was found to be 5.53%. Further, the AC50 under setting [1] is 29.1 µM [rising, single point]. With `O=C(Cc1ccc2c(c1)OCCO2)Nc1cc(C(F)(F)F)ccc1N1CCOCC1`, the cell number change was determined as 94%. Also, the AC50 under setting [2] is 20.6 µM [rising, partial curve]. As to `O=C(Nc1ccc(Cl)c(Cl)c1)OCCNC(=O)c1cccc(Cl)c1`, the cell number change is -14.3%. For the same compound, the AC50 under setting [1] is 11.6 µM [rising, partial curve]. Turning to `O=C(Nc1ncccn1)c1cc(-c2cccc(Br)c2)nc2ccccc12`, the cell number change was determined as 16.7%. As to `NCC12CC3CC(C1)CC(CN)(C3)C2`, the cell number change came to 0.0893%. Besides, the AC50 under setting [1] is 6.51 µM [falling, single point].

For `Cc1nn(CC(=O)Nc2c(F)c(F)cc(F)c2F)c(=O)c2cccn12`, the cell number change stood at 2.14%. Moreover, the AC50 under setting [1] is 0.58 µM [falling, single point]. `COc1ccc(NC2=CC(=O)CC(c3ccccc3)C2)c(OC)c1` (stereo unspecified): the cell number change came out at 12.3%. For the same compound, under setting [1], the concentration at half-maximal activity (AC50) is 5.8 µM [rising, single point]. Consider `CC(=O)CSc1ncnc2sc3c(c12)CCC(C)C3` (stereo unspecified), for which the cell number change is 8.2%. Also, the AC50 under setting [1] was 1.84 µM [rising, partial curve, poor fit]. As for `COc1ccc(-c2csc(Nc3ccc(S(=O)(=O)Nc4cc(OC)nc(OC)n4)cc3)n2)cc1`, the cell number change stood at 19.4%. The AC50 under setting [1] was 20.6 µM [rising, partial curve, poor fit]. Consider `CC(C(=O)NC1C=CS(=O)(=O)C1)N1C(=O)/C(=C\c2ccccc2)SC1=S` (stereo unspecified), for which the cell number change is 8.02%. The half-maximal activity concentration (AC50) under setting [2] is 6.51 µM [falling, single point]. With `CC1CCCN(C(=O)c2ccncc2)C1` (stereo unspecified), the cell number change is -172%. The half-maximal activity concentration (AC50) under setting [2] was 23.1 µM [falling, partial curve]. `Cn1ccc2ccc(C3=CC(=O)C[C@H](c4ccc(F)cc4)C3)cc21`: the cell number change was -20.8%. Under setting [1], the AC50 is 4.61 µM [falling, partial curve]. As to `CC(NC(=O)COC(=O)CCc1ccc(S(=O)(=O)N2CCOCC2)cc1)C1CC2CCC1C2` (stereo unspecified), the cell number change was -22.5%. Also, the half-maximal activity concentration (AC50) under setting [1] is 0.00461 µM [falling, full curve, poor fit].

Consider `CCCCCn1c(=O)[nH]c2cc(C(=O)NCCN3CCCCC3C)ccc2c1=O` (stereo unspecified), for which the cell number change was determined as 3.42%. In addition, under setting [1], the half-maximal activity concentration (AC50) is 29.1 µM [falling, single point]. Take `CSc1nsc(/C=C/Nc2ccc(C)cc2)c1C#N`: the cell number change was -41.8%. Moreover, under setting [2], the concentration at half-maximal activity (AC50) was 2.31 µM [falling, partial curve, poor fit]. Further, the AC50 under setting [1] was 2.31 µM [falling, partial curve]. With `CC1CCN(S(=O)(=O)c2cn(CC(=O)Nc3ccc(OC(F)(F)F)cc3)cn2)CC1`, the cell number change is 10.1%. Further, the AC50 under setting [1] was 6.51 µM [rising, partial curve, poor fit]. On to `Cn1c(=O)c(=O)n(C)c2cc(S(=O)(=O)Nc3ccc(OC(F)(F)F)cc3)ccc21`, for which the cell number change was found to be 23%. Under setting [1], the AC50 was 20.6 µM [rising, single point]. As to `O=C(Nc1cccc(S(=O)(=O)NC2=NCCCCC2)c1)c1cc(-c2ccccc2)nc2ccccc12`, the cell number change came to 55.3%. Moreover, the AC50 under setting [2] was 14.6 µM [rising, partial curve]. Turning to `COc1ccc(-c2csc(NC(=O)c3ccccc3NS(=O)(=O)c3ccc(C)cc3)n2)cc1`, the cell number change is -39.3%. Further, the half-maximal activity concentration (AC50) under setting [2] was 16.4 µM [falling, single point]. Further, the half-maximal activity concentration (AC50) under setting [1] is 2.59 µM [falling, full curve].

As to `COc1ccc(OCc2cc(C(=O)NC(C)Cc3cccnc3)no2)c(Cl)c1` (stereo unspecified), the cell number change was determined as 14.5%. In addition, the concentration at half-maximal activity (AC50) under setting [1] was 7.31 µM [falling, partial curve]. Regarding `O=C1C=CC(=O)N1CCNc1ncc(C(F)(F)F)cc1Cl`, the cell number change is -16%. In addition, under setting [2], the AC50 is 2.91 µM [falling, single point]. Also, under setting [1], the AC50 is 4.61 µM [falling, full curve]. In the case of `O=C(NCc1cccnc1)c1cccc(S(=O)(=O)Nc2cccc(Cl)c2)c1`, the cell number change was -13.3%. Under setting [2], the concentration at half-maximal activity (AC50) is 3.26 µM [rising, single point]. In the case of `O=C(NCC(=O)N(c1cccc(F)c1)C(C(=O)NC1CCCC1)c1cccnc1)c1cccs1` (stereo unspecified), the AC50 under setting [2] was 0.146 µM [falling, full curve, poor fit]. As to `COc1ccc(NC(=O)[C@H](C)NC(N)=O)cc1S(=O)(=O)Nc1cc(C)ccc1Br`, under setting [1], the half-maximal activity concentration (AC50) was 0.00411 µM [falling, full curve, poor fit]. Still for that read-out and setting: the value for `Cc1ccc(SCC(=O)N2c3ccccc3Sc3ccccc32)cc1` was 4.11 µM [falling, single point].

Broadly, the AC50 is the concentration at which the activity in the assay is half-maximal. The low end stands for activity at low concentration, the high end for activity only at high concentration.
